These results are taken from publication doi:10.1101/2021.11.11.468204.

Chains of the proteins cited; added tags and fusions are not shown. Residues count along the entry.
UniProt O95202, residues 116-739: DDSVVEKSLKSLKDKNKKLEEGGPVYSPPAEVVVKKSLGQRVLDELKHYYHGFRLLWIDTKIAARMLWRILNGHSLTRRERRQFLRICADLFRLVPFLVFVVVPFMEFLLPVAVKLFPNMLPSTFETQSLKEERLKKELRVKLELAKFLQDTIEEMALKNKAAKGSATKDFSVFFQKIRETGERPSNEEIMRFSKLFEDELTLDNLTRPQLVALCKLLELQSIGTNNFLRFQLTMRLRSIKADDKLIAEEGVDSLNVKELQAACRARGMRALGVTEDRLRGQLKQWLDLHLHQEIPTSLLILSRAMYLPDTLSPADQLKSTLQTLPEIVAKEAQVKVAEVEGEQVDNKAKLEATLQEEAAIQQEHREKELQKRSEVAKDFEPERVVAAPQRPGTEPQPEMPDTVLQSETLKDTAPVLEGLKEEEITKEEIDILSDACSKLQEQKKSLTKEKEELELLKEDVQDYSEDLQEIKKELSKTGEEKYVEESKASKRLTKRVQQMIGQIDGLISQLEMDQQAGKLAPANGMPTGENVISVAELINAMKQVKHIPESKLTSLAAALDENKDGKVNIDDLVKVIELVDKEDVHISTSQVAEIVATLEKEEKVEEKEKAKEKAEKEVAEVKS

No constants are given. Whether binding was seen depends on the method and setting. For part of these data: Binding seen in cells or lysates may run through a third protein. Some binding calls cover weakened binding; strength is not graded here.

Assay [1] concerns the target T1, mitochondrial Morphology and Cristae Structure 1 (MICS1) (human (endogenous in HEK293)) (UniProt Q9H3K2).
T1 sequence: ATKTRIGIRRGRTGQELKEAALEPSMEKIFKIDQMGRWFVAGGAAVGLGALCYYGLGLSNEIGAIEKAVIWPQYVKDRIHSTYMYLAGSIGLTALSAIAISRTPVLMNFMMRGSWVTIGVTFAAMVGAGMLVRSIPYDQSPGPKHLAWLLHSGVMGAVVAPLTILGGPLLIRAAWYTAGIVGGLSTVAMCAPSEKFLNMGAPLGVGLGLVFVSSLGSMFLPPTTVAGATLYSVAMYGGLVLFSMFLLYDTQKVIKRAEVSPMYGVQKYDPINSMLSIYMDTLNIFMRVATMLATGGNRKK
Kind of assay: co-IP.

The target in assay [2] is LETM1 (human (endogenous in HEK293)) (UniProt O95202). Kind of assay: co-IP.
Assay [3] shares this target. The experiment in a line: native gel or EMSA. (A gel shift assay detects complexes by their altered migration in electrophoresis.)

Take LETM1 (from UniProt O95202 116-739): the binding entry in assay [1] is listed as “binds”.

B1: mitochondrial Morphology and Cristae Structure 1 (MICS1) (protein, UniProt Q9H3K2 46-345)
chain: ATKTRIGIRRGRTGQELKEAALEPSMEKIFKIDQMGRWFVAGGAAVGLGALCYYGLGLSNEIGAIEKAVIWPQYVKDRIHSTYMYLAGSIGLTALSAIAISRTPVLMNFMMRGSWVTIGVTFAAMVGAGMLVRSIPYDQSPGPKHLAWLLHSGVMGAVVAPLTILGGPLLIRAAWYTAGIVGGLSTVAMCAPSEKFLNMGAPLGVGLGLVFVSSLGSMFLPPTTVAGATLYSVAMYGGLVLFSMFLLYDTQKVIKRAEVSPMYGVQKYDPINSMLSIYMDTLNIFMRVATMLATGGNRKK
B1: the binding entry in assay [2] and in assay [3] was “binds” each time.
